According to patent publication US6743640B2, “Fluorescent polymer-QTL approach to biosensing” (priority 2000, dated 2004):

How the values were obtained:
[1] = Quenching of polystyrene bead-supported polymer 1; conditions: for quenching of polystyrene-supported polymer 1: polymer 1 coated on cationic Source 30 Q polystyrene beads
[2] = Quenching of polystyrene bead-supported polymer 2; conditions: polymer 2 coated on anionic Source 30 S polystyrene beads
[3] = Quenching of mixture of Laponite-supported polymer 2 and dissolved polymer 1; conditions: polymer 2 on Laponite clay, polymer 1 in aqueous solution

avidin: 66 KD protein avidin, four biotin binding sites
change in emission of unquenched polystyrene-supported polymer 1 ([1]; added to unquenched supported polymer 1): no detectable change in the polymer emission

anthraquinone disulfonate [anthraquinone 5]
quenching of polystyrene-supported polymer 1 [1]: quenched
quenching of polystyrene-supported polymer 2 [2]: not
quenching in mixture of supported polymer 2 and dissolved polymer 1 [3]: selective quenching of the fluorescence of polymer 2

C[n+]1ccc(-c2cc[n+](C)cc2)cc1 [viologen 3, methyl viologen]
quenching of polystyrene-supported polymer 1 [1]: not
quenching in mixture of supported polymer 2 and dissolved polymer 1 [3]: only quenched the fluorescence of polymer 1
